# Data from the supplement of paper PMC8728848.
# The other results are listed elsewhere or left out.
# What was measured:
# Assay in all cases: glycan array binding signal (z-score within array); higher = stronger binding
# Conditions in all cases: glycan notation: IUPAC condensed, linker removed
# GalNAc(b1-3)Gal = target: GalNAc(b1-3)Gal
# How it was run: (§1)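 Arrays were curated from the Consortium for Functional Glycomics database, 3228 in total, and kept only where the protein sequence was available. Binding is expressed as a within-array Z-score. This score was averaged across arrays of the same protein sequence at different concentrations or buffers and across linkers, and negative values can be read as non-binding.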
# [1] = target: GalNAc(b1-3)Gal(a1-4)Gal(b1-4)GlcNAc
# How it was run: as §1
# [2] = target: GalNAc(b1-3)Gal(a1-4)Gal(b1-4)GlcNAc(b1-3)Gal(b1-4)Glc
# How it was run: as §1
# [3] = target: GalNAc(b1-3)Gal(a1-6)Gal(b1-4)Glc
# How it was run: as §1
# GalNAc(b1-3)GalNAc = target: GalNAc(b1-3)GalNAc
# How it was run: as §1
# GalNAc(b1-3)GlcNAc = target: GalNAc(b1-3)GlcNAc
# How it was run: as §1
# GalNAc(b1-4)Gal(b1-4)Glc = target: GalNAc(b1-4)Gal(b1-4)Glc
# How it was run: as §1
# GalNAc(b1-4)GlcNAc = target: GalNAc(b1-4)GlcNAc
# How it was run: as §1
# [4] = target: GalNAc(b1-4)GlcNAc(b1-2)Man
# How it was run: as §1
# [5] = target: GalNAc(b1-4)GlcNAc(b1-2)Man(a1-3)[GalNAc(b1-4)GlcNAc(b1-2)Man(a1-6)]Man(b1-4)GlcNAc(b1-4)GlcNAc
# How it was run: as §1
# [6] = target: GalNAc(b1-4)GlcNAc(b1-3)GalNAc(b1-4)GlcNAc
# How it was run: as §1
# GalNAc(b1-4)GlcNAc6S = target: GalNAc(b1-4)GlcNAc6S
# How it was run: as §1
# GalNAc(b1-6)GalNAc = target: GalNAc(b1-6)GalNAc
# How it was run: as §1
# GalNAc3S(b1-4)GlcNAc = target: GalNAc3S(b1-4)GlcNAc
# How it was run: as §1
# GalNAc3S(b1-4)GlcNAc3S = target: GalNAc3S(b1-4)GlcNAc3S
# How it was run: as §1
# [7] = target: GalNAc3S(b1-4)[Fuc(a1-3)]GlcNAc
# How it was run: as §1
# GalNAc4S6S(b1-4)GlcNAc = target: GalNAc4S6S(b1-4)GlcNAc
# How it was run: as §1
# GalNAc6S(b1-4)GlcNAc = target: GalNAc6S(b1-4)GlcNAc
# How it was run: as §1
# Glc(a1-4)Glc = target: Glc(a1-4)Glc
# How it was run: as §1
# [8] = target: Glc(a1-4)Glc(a1-4)Glc(a1-4)Glc
# How it was run: as §1
# Glc(a1-6)Glc(a1-6)Glc = target: Glc(a1-6)Glc(a1-6)Glc
# How it was run: as §1
# [9] = target: Glc(a1-6)Glc(a1-6)Glc(a1-6)Glc
# How it was run: as §1
# Glc(b1-4)Glc = target: Glc(b1-4)Glc
# How it was run: as §1
# Glc(b1-6)Glc = target: Glc(b1-6)Glc
# How it was run: as §1
# GlcA(b1-3)Gal = target: GlcA(b1-3)Gal
# How it was run: as §1
# GlcA(b1-3)GlcNAc = target: GlcA(b1-3)GlcNAc
# How it was run: as §1
# GlcA(b1-6)Gal = target: GlcA(b1-6)Gal
# How it was run: as §1
# [10] = target: GlcA3S(b1-3)Gal(b1-4)GlcNAc(b1-2)Man
# How it was run: as §1
# [11] = target: GlcA3S(b1-3)Gal(b1-4)GlcNAc(b1-3)Gal(b1-4)Glc
# How it was run: as §1
# [12] = target: GlcNAc(a1-3)Gal(b1-4)GlcNAc
# How it was run: as §1
# [13] = target: GlcNAc(a1-4)Gal(b1-3)GlcNAc
# How it was run: as §1
# [14] = target: GlcNAc(a1-4)Gal(b1-4)GalNAc
# How it was run: as §1
# [15] = target: GlcNAc(a1-4)Gal(b1-4)GlcNAc
# How it was run: as §1
# [16] = target: GlcNAc(a1-4)Gal(b1-4)GlcNAc(b1-3)Gal(b1-4)Glc
# How it was run: as §1
# [17] = target: GlcNAc(a1-4)Gal(b1-4)GlcNAc(b1-3)Gal(b1-4)GlcNAc
# How it was run: as §1
# [18] = target: GlcNAc(a1-4)Gal(b1-4)GlcNAc(b1-3)Gal(b1-4)GlcNAc(b1-3)Gal(b1-4)GlcNAc
# How it was run: as §1
# [19] = target: GlcNAc(a1-4)Gal(b1-4)GlcNAc(b1-3)Gal(b1-4)[Fuc(a1-3)]GlcNAc(b1-3)Gal(b1-4)[Fuc(a1-3)]GlcNAc
# How it was run: as §1
# [20] = target: GlcNAc(a1-6)Gal(b1-4)GlcNAc
# How it was run: as §1
binder,measurement,setting,value
his-Lectin-24A (Drosophila melanogaster) (protein) MFRLSVLVLNLLLVSHEFSAGTAKIEIQPLPALCNGYCFPTLKPVMEYVAIHQDKWNTCTEILANEARKDQIQLNIQLDALKADVSNIKASQLSKDEKLDRMEREQFAMHESLETINRYLTVKLDRTKLQLEAIKNTMDYMKAQMDGYFSAINGVQCLQPGFEKIGDRYFYIEEDVELNWLDAQAKCRRMGGHLASIKTKQEFDAIVEKLDDSKSYFLGVNENTKTGDFVSAASGKSCLYHEWGPGEPHHNNDQERCVSILRKLMHVGNCTYEKRFICQYGI,glycan array binding signal (z-score),GalNAc(b1-3)Gal,1.97
same,glycan array binding signal (z-score),[1],0.373
same,glycan array binding signal (z-score),[2],0.535
same,glycan array binding signal (z-score),[3],-0.756
same,glycan array binding signal (z-score),GalNAc(b1-3)GalNAc,-0.514
same,glycan array binding signal (z-score),GalNAc(b1-3)GlcNAc,-1.41
same,glycan array binding signal (z-score),GalNAc(b1-4)Gal(b1-4)Glc,0.65
same,glycan array binding signal (z-score),GalNAc(b1-4)GlcNAc,-0.083
same,glycan array binding signal (z-score),[4],-1.85
same,glycan array binding signal (z-score),[5],0.339
same,glycan array binding signal (z-score),[6],-0.119
same,glycan array binding signal (z-score),GalNAc(b1-4)GlcNAc6S,-1
same,glycan array binding signal (z-score),GalNAc(b1-6)GalNAc,-0.51
same,glycan array binding signal (z-score),GalNAc3S(b1-4)GlcNAc,0.808
same,glycan array binding signal (z-score),GalNAc3S(b1-4)GlcNAc3S,3.3
same,glycan array binding signal (z-score),[7],0.419
same,glycan array binding signal (z-score),GalNAc4S6S(b1-4)GlcNAc,6.71
same,glycan array binding signal (z-score),GalNAc6S(b1-4)GlcNAc,-0.244
same,glycan array binding signal (z-score),Glc(a1-4)Glc,-0.592
same,glycan array binding signal (z-score),[8],-0.325
same,glycan array binding signal (z-score),Glc(a1-6)Glc(a1-6)Glc,-1.11
same,glycan array binding signal (z-score),[9],-0.677
same,glycan array binding signal (z-score),Glc(b1-4)Glc,-0.805
same,glycan array binding signal (z-score),Glc(b1-6)Glc,-0.899
same,glycan array binding signal (z-score),GlcA(b1-3)Gal,0.317
same,glycan array binding signal (z-score),GlcA(b1-3)GlcNAc,-0.583
same,glycan array binding signal (z-score),GlcA(b1-6)Gal,0.235
same,glycan array binding signal (z-score),[10],0.152
same,glycan array binding signal (z-score),[11],-1.2
same,glycan array binding signal (z-score),[12],-0.868
same,glycan array binding signal (z-score),[13],-0.494
same,glycan array binding signal (z-score),[14],-0.345
same,glycan array binding signal (z-score),[15],-0.489
same,glycan array binding signal (z-score),[16],2.7
same,glycan array binding signal (z-score),[17],1.25
same,glycan array binding signal (z-score),[18],-1.01
same,glycan array binding signal (z-score),[19],1.91
same,glycan array binding signal (z-score),[20],1.35

# An excerpt of these results, as tab-separated lines:
binder	measurement	setting	value
his-Lectin-24A (Drosophila melanogaster) (protein) MFRLSVLVLNLLLVSHEFSAGTAKIEIQPLPALCNGYCFPTLKPVMEYVAIHQDKWNTCTEILANEARKDQIQLNIQLDALKADVSNIKASQLSKDEKLDRMEREQFAMHESLETINRYLTVKLDRTKLQLEAIKNTMDYMKAQMDGYFSAINGVQCLQPGFEKIGDRYFYIEEDVELNWLDAQAKCRRMGGHLASIKTKQEFDAIVEKLDDSKSYFLGVNENTKTGDFVSAASGKSCLYHEWGPGEPHHNNDQERCVSILRKLMHVGNCTYEKRFICQYGI	glycan array binding signal (z-score)	[3]	-0.756
same	glycan array binding signal (z-score)	GalNAc(b1-3)GalNAc	-0.514
same	glycan array binding signal (z-score)	[5]	0.339
same	glycan array binding signal (z-score)	[6]	-0.119
same	glycan array binding signal (z-score)	GalNAc(b1-4)GlcNAc6S	-1
same	glycan array binding signal (z-score)	GalNAc(b1-6)GalNAc	-0.51
same	glycan array binding signal (z-score)	GalNAc3S(b1-4)GlcNAc3S	3.3
same	glycan array binding signal (z-score)	[9]	-0.677
same	glycan array binding signal (z-score)	[13]	-0.494
same	glycan array binding signal (z-score)	[15]	-0.489
same	glycan array binding signal (z-score)	[16]	2.7
same	glycan array binding signal (z-score)	[18]	-1.01
